This assay has as its target T1, KH-type splicing regulatory protein (KSRP) (human (endogenous in CRC cells)) (UniProt Q92945).
T1 sequence: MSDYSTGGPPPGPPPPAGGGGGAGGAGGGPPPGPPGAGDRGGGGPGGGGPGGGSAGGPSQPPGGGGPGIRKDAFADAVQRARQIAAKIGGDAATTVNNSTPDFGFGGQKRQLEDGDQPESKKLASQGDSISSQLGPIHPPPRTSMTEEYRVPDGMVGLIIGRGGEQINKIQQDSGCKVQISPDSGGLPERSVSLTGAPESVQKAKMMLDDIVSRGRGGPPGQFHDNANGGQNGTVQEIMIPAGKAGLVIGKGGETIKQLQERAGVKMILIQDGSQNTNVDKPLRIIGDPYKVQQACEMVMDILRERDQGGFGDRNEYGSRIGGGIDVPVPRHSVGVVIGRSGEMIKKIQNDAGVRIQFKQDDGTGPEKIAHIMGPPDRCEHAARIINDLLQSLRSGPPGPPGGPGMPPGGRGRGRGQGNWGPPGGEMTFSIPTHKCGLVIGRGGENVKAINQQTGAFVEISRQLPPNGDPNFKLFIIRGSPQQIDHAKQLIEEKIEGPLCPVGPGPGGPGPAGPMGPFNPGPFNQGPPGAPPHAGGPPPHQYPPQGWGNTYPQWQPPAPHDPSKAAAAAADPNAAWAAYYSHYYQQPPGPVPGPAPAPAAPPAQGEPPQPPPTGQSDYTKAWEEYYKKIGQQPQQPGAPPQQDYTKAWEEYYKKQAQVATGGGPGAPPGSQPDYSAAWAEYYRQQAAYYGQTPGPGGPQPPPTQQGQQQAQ
Description: co-IP; endogenous Co-IP in CRC cells; KSRP immunoprecipitates incubated with or without RNase A (0.1 mg/mL) at 37°C for 20 min; Drosha and Dicer detected by blot.

The chains behind the UniProt entries cited, without tags or fusion partners.
UniProt Q9UPY3: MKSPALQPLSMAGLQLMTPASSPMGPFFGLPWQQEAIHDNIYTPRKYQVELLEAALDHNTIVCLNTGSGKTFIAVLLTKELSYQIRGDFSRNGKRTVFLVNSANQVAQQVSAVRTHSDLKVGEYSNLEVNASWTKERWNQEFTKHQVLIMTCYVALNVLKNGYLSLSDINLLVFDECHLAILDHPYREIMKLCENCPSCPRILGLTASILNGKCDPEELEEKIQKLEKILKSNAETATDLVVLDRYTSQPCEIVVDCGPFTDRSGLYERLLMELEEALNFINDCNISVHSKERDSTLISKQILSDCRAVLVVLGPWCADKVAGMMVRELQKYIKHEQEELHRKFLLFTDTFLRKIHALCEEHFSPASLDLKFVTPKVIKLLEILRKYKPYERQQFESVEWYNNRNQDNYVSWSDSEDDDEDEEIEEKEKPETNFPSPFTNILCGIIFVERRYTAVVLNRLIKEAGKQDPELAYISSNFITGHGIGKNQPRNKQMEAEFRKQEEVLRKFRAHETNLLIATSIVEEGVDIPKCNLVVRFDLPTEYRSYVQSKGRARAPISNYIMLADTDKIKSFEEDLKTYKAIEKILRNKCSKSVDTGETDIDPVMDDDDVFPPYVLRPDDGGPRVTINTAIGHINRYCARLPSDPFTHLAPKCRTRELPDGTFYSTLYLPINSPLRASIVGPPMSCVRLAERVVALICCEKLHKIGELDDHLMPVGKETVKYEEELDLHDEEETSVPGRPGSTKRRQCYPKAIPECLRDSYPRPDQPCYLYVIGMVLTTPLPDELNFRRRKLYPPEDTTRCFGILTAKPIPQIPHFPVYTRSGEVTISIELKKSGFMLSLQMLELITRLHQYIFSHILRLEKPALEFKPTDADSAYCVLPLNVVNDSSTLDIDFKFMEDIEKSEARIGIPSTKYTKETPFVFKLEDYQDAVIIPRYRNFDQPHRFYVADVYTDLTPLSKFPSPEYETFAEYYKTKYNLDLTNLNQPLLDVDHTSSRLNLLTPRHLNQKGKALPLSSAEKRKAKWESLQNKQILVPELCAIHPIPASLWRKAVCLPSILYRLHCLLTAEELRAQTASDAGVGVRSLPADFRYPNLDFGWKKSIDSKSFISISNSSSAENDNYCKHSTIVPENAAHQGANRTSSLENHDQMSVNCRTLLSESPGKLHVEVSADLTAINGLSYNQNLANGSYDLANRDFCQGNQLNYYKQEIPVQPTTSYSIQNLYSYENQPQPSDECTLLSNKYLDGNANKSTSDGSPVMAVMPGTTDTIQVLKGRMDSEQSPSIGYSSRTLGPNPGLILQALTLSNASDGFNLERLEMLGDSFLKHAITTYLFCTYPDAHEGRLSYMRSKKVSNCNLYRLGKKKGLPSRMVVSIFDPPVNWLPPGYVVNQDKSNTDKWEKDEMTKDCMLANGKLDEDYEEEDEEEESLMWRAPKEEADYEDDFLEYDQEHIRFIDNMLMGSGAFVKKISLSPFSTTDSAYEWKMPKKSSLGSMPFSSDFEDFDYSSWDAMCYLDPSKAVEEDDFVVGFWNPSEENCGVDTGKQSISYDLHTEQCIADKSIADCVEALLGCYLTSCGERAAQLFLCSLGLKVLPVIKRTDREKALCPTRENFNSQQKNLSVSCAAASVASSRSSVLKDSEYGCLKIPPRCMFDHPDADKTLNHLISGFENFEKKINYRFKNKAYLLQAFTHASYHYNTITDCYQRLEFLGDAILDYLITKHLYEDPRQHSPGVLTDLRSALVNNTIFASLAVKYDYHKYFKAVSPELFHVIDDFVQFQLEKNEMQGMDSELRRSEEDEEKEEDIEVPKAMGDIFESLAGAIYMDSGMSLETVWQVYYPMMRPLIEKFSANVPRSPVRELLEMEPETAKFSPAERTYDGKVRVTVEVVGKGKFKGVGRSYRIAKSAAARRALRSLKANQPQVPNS

The source of these data is PMC10411474.

These are yes or no findings as the source states them, for the method shown. In cells and extracts the contact can be indirect. Some binding calls cover weakened binding; strength is not graded here.

With “Dicer (from UniProt Q9UPY3 1-1922) (enzyme)”, the binding entry is listed as “binds”.

B1: Drosha (enzyme, UniProt Q9NRR4 1-1374)
chain: MMQGNTCHRMSFHPGRGCPRGRGGHGARPSAPSFRPQNLRLLHPQQPPVQYQYEPPSAPSTTFSNSPAPNFLPPRPDFVPFPPPMPPSAQGPLPPCPIRPPFPNHQMRHPFPVPPCFPPMPPPMPCPNNPPVPGAPPGQGTFPFMMPPPSMPHPPPPPVMPQQVNYQYPPGYSHHNFPPPSFNSFQNNPSSFLPSANNSSSPHFRHLPPYPLPKAPSERRSPERLKHYDDHRHRDHSHGRGERHRSLDRRERGRSPDRRRQDSRYRSDYDRGRTPSRHRSYERSRERERERHRHRDNRRSPSLERSYKKEYKRSGRSYGLSVVPEPAGCTPELPGEIIKNTDSWAPPLEIVNHRSPSREKKRARWEEEKDRWSDNQSSGKDKNYTSIKEKEPEETMPDKNEEEEEELLKPVWIRCTHSENYYSSDPMDQVGDSTVVGTSRLRDLYDKFEEELGSRQEKAKAARPPWEPPKTKLDEDLESSSESECESDEDSTCSSSSDSEVFDVIAEIKRKKAHPDRLHDELWYNDPGQMNDGPLCKCSAKARRTGIRHSIYPGEEAIKPCRPMTNNAGRLFHYRITVSPPTNFLTDRPTVIEYDDHEYIFEGFSMFAHAPLTNIPLCKVIRFNIDYTIHFIEEMMPENFCVKGLELFSLFLFRDILELYDWNLKGPLFEDSPPCCPRFHFMPRFVRFLPDGGKEVLSMHQILLYLLRCSKALVPEEEIANMLQWEELEWQKYAEECKGMIVTNPGTKPSSVRIDQLDREQFNPDVITFPIIVHFGIRPAQLSYAGDPQYQKLWKSYVKLRHLLANSPKVKQTDKQKLAQREEALQKIRQKNTMRREVTVELSSQGFWKTGIRSDVCQHAMMLPVLTHHIRYHQCLMHLDKLIGYTFQDRCLLQLAMTHPSHHLNFGMNPDHARNSLSNCGIRQPKYGDRKVHHMHMRKKGINTLINIMSRLGQDDPTPSRINHNERLEFLGDAVVEFLTSVHLYYLFPSLEEGGLATYRTAIVQNQHLAMLAKKLELDRFMLYAHGPDLCRESDLRHAMANCFEALIGAVYLEGSLEEAKQLFGRLLFNDPDLREVWLNYPLHPLQLQEPNTDRQLIETSPVLQKLTEFEEAIGVIFTHVRLLARAFTLRTVGFNHLTLGHNQRMEFLGDSIMQLVATEYLFIHFPDHHEGHLTLLRSSLVNNRTQAKVAEELGMQEYAITNDKTKRPVALRTKTLADLLESFIAALYIDKDLEYVHTFMNVCFFPRLKEFILNQDWNDPKSQLQQCCLTLRTEGKEPDIPLYKTLQTVGPSHARTYTVAVYFKGERIGCGKGPSIQQAEMGAAMDALEKYNFPQMAHQKRFIERKYRQELKEMRWEREHQEREPDETEDIKK
With B1, the binding entry was “binds”.
